Consider one substance from article PMC9785994.

The chains behind the UniProt entries cited, without tags or fusion partners. Where a name states a change or a piece, a line headed by the entry shows the natural chain unless it says otherwise.
UniProt P23443: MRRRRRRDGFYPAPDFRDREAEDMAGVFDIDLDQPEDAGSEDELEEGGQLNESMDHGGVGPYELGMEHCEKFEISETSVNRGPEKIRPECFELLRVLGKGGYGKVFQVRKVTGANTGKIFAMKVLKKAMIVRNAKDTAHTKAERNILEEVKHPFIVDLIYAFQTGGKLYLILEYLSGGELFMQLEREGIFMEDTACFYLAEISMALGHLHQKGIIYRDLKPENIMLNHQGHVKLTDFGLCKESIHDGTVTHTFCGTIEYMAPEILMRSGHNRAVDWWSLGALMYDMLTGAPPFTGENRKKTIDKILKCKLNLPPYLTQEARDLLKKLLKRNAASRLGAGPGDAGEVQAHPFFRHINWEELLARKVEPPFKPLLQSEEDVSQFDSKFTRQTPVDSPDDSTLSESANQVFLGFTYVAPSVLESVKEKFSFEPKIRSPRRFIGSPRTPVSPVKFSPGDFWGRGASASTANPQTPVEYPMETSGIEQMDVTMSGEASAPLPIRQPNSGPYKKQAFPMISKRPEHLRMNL
UniProt P35222: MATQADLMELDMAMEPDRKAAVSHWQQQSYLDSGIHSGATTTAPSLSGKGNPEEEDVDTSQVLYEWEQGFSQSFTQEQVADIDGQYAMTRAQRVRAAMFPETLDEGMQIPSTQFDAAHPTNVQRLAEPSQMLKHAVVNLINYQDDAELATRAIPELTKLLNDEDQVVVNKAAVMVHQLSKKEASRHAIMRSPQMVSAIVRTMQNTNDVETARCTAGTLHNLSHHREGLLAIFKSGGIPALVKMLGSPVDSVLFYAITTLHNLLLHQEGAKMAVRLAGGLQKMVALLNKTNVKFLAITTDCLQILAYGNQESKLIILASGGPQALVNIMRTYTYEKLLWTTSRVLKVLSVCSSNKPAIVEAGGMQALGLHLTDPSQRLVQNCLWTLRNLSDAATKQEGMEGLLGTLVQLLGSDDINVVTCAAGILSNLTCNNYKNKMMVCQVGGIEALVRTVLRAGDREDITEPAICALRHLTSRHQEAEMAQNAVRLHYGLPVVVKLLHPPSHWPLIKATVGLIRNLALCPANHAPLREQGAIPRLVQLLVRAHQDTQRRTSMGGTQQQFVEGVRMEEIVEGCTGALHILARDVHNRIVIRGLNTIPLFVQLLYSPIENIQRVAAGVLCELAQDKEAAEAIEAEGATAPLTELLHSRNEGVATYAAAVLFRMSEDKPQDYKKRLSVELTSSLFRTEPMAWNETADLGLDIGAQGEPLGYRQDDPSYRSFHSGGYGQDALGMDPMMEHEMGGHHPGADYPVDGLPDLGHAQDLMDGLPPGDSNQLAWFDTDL

Experiment [1] has as its target Flag-tagged constitutively active S6K1 (S6K1-CA) (human) (UniProt P23443). The experiment is described as follows: co-IP; 293T cells expressing Flag-tagged WT, CA and DN forms of S6K1, treated with LiCl (25 mM) for 8 h; immunoprecipitation with Flag antibody.
The target of experiment [2] is Flag-tagged dominant-negative S6K1 (S6K1-DN) (human) (UniProt P23443). The description is as above.

Results are given in words; binding and its absence hold for the method and conditions named. Binding seen in cells or lysates may run through a third protein. Binding calls can cover weak binding; strength is not graded here.

With “β-catenin, endogenous in 293T cells (from UniProt P35222 1-781)”, the binding entry in experiment [1] and in experiment [2] was “binds” in each case.
